These are yes or no findings as the source states them, for the method shown. In cells and extracts the contact can be indirect. Some entries that bind do so weakly or less than the wild type.
Biological target: RelA/p65 (human (endogenous in EBV B cells)), Q04206
Assay: co-IP; lysates (RIPA buffer) of EBV B cells homozygous for the rs10499197-tagged non-risk TNFAIP3 haplotype, precleared with normal rabbit IgG and protein A/G beads, incubated with anti-RelA/p65 antibody for 16 h at 4°C; western blot with anti-RelA/p65 or anti-CEBPB antibody
Details: remark: other sources report otherwise

binding: binds
B1: CCAAT/enhancer-binding protein beta (CEBPB), P17676 1-345 (protein)
chain: MQRLVAWDPACLPLPPPPPAFKSMEVANFYYEADCLAAAYGGKAAPAAPPAARPGPRPPAGELGSIGDHERAIDFSPYLEPLGAPQAPAPATATDTFEAAPPAPAPAPASSGQHHDFLSDLFSDDYGGKNCKKPAEYGYVSLGRLGAAKGALHPGCFAPLHPPPPPPPPPAELKAEPGFEPADCKRKEEAGAPGGGAGMAAGFPYALRAYLGYQAVPSGSSGSLSTSSSSSPPGTPSPADAKAPPTACYAGAAPAPSQVKSKAKKTVDKHSDEYKIRRERNNIAVRKSRDKAKMRNLETQHKVLELTAENERLQKKVEQLSRELSTLRNLFKQLPEPLLASSGHC

Source: PMC9527318
